± gives the standard deviation of the averaged measurements. This is a selection; strong and weak results do not stand in their true shares.
Compound: Nc1ncnc2c1ncn2[C@@H]1O[C@H](COP(=O)(O)OP(=O)(O)OP(=O)(O)O)[C@@H](O)[C@H]1O [adenosine triphosphate]
Assay: NP40-soluble protein abundance relative to vehicle (solubility fold change) (ratio); higher = more soluble protein in presence of ATP
Method in brief: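 Jurkat crude lysate (Dounce-homogenised) was treated with eight concentrations from 0.1 to 10 mM for 10 min at room temperature, then 3 min at 37 °C. It was solubilised with 0.8% NP40 and benzonase (60 min, 4 °C) and ultracentrifuged, and the supernatant was TMT-labelled for LC-MS/MS. Intensities were vsn-normalised, and the value is the fold change against the NP40-processed vehicle per replicate, from three independent experiments.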

Sequences of proteins named here, by UniProt entry; tags and fusion partners are left off. A change or cut given only in a name is not applied to a line headed by its entry.
UniProt Q9H773: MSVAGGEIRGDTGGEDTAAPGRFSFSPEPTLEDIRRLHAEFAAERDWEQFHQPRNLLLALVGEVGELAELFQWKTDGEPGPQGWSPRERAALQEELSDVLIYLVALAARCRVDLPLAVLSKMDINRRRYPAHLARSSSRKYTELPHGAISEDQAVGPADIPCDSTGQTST
UniProt Q9H1D9: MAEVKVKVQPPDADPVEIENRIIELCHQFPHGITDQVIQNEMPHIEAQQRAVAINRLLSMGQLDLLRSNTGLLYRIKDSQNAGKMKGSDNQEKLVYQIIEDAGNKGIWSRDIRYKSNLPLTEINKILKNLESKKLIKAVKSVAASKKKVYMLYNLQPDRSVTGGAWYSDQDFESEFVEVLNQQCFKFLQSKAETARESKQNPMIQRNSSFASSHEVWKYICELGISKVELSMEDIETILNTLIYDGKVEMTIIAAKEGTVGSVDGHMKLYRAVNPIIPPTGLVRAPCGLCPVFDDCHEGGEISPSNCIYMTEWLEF
UniProt Q9H9Y4: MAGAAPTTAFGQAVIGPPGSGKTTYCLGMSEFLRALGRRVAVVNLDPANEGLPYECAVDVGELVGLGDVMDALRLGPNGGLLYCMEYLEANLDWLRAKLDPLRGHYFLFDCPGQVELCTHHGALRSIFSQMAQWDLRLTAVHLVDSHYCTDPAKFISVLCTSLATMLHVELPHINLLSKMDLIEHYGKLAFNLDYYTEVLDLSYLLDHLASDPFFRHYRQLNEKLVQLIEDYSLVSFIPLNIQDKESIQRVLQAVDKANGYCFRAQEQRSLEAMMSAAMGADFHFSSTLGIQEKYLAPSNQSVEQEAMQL
UniProt Q9HBH0: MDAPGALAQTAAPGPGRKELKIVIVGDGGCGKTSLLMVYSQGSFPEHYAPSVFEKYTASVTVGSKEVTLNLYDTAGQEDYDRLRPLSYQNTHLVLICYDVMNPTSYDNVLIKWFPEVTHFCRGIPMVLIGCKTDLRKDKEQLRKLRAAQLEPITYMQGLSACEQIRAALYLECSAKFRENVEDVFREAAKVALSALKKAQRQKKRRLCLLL
UniProt Q9NP87, whole entry: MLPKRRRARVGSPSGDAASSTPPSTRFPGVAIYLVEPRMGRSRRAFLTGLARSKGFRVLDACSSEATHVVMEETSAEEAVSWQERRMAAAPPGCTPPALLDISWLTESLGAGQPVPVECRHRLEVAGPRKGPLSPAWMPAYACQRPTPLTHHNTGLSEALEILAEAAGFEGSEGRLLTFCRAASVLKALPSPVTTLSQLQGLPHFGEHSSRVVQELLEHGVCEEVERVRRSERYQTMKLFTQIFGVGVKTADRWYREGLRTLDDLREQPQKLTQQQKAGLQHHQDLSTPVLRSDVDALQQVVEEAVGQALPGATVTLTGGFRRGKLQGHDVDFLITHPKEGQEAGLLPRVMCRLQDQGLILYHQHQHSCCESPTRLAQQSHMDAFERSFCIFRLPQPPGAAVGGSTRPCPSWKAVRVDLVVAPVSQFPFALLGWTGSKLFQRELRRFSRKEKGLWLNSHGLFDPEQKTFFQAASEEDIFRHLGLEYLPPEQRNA
UniProt Q9HA65: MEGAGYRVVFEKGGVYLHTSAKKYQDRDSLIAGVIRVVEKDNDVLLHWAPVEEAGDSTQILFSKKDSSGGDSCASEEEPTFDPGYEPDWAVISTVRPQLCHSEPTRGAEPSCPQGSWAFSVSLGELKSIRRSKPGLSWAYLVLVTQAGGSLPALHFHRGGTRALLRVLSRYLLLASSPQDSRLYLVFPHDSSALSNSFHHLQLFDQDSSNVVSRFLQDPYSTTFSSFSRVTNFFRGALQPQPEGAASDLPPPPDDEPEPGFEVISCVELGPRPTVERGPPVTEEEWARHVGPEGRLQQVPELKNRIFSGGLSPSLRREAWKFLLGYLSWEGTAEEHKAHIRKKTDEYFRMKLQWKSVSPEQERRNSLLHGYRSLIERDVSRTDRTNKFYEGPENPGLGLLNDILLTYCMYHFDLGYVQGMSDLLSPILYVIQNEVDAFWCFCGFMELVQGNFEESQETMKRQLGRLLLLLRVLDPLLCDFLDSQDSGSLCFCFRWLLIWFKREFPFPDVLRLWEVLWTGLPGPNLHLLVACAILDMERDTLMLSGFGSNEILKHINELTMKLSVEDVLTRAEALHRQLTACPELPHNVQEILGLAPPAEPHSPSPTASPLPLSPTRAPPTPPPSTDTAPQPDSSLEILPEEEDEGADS
UniProt Q9GZM8: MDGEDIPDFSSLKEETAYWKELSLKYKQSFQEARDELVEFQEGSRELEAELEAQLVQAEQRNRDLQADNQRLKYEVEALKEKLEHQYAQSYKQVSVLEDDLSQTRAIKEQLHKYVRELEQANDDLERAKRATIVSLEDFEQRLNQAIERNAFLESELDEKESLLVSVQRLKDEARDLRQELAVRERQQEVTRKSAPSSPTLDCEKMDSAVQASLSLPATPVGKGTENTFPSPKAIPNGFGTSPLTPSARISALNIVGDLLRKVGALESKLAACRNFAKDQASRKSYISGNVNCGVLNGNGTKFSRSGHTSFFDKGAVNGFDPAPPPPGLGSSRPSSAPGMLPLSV
UniProt Q9HBH1: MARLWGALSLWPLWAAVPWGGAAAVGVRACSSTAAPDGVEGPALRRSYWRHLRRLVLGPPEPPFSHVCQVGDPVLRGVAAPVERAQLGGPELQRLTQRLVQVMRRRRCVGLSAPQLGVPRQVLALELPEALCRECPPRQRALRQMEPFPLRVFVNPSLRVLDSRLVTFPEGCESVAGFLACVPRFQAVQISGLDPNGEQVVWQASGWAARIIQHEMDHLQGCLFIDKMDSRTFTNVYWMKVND
UniProt Q9H936: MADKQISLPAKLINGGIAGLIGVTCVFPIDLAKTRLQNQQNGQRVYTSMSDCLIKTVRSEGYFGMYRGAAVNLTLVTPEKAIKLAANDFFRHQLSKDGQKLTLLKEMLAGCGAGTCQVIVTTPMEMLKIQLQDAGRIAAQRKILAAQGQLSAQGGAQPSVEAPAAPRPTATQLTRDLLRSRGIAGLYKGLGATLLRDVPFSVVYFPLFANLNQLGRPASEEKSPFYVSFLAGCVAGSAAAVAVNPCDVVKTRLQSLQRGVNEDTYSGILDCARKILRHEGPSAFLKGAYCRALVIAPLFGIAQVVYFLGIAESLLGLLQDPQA
UniProt Q9H3H5: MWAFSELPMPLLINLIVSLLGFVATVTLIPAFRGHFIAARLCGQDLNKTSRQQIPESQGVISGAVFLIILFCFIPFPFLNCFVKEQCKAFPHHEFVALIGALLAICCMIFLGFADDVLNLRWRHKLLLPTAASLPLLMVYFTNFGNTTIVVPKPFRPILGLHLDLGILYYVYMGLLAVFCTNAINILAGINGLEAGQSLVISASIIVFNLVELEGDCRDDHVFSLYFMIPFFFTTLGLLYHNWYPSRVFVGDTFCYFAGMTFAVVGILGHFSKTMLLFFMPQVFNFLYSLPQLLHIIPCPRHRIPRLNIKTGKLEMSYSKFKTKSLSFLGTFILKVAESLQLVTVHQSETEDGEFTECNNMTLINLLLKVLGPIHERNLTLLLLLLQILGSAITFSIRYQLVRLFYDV
UniProt Q9H6F5: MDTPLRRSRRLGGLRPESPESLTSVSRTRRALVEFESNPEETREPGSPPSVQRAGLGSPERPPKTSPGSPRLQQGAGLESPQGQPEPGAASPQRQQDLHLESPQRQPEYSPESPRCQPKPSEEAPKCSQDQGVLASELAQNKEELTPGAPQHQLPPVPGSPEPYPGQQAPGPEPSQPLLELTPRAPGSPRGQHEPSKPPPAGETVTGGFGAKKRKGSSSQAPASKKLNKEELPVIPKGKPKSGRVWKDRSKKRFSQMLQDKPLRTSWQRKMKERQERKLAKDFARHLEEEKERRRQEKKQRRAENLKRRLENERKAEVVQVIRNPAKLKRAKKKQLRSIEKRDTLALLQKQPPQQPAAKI
UniProt Q9H6Y2: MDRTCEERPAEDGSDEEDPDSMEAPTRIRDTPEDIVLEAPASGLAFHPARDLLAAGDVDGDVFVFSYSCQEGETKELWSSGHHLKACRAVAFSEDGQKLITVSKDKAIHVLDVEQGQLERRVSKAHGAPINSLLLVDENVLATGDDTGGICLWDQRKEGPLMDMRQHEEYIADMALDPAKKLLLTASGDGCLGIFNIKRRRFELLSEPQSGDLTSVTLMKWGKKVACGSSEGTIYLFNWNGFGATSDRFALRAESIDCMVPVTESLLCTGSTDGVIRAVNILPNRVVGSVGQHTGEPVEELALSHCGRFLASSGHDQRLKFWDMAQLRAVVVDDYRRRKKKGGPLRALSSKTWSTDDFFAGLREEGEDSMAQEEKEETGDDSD
UniProt Q9HB40: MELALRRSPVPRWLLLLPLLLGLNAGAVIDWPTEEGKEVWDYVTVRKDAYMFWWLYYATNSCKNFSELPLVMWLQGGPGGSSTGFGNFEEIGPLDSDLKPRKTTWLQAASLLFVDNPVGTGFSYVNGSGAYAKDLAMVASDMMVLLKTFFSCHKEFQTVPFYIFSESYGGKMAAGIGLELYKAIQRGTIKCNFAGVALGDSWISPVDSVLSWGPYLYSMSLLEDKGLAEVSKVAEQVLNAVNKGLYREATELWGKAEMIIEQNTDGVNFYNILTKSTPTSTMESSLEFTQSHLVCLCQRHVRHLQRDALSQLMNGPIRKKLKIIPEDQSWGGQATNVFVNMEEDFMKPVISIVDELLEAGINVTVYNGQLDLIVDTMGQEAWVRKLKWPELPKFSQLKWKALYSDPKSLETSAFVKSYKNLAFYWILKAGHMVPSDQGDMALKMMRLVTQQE
UniProt Q9H944: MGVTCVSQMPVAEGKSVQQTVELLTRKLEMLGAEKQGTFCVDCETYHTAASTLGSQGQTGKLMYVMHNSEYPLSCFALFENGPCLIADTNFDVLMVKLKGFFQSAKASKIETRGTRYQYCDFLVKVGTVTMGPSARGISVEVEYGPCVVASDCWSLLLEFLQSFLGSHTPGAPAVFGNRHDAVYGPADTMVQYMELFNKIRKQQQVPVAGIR
UniProt Q9H8V3: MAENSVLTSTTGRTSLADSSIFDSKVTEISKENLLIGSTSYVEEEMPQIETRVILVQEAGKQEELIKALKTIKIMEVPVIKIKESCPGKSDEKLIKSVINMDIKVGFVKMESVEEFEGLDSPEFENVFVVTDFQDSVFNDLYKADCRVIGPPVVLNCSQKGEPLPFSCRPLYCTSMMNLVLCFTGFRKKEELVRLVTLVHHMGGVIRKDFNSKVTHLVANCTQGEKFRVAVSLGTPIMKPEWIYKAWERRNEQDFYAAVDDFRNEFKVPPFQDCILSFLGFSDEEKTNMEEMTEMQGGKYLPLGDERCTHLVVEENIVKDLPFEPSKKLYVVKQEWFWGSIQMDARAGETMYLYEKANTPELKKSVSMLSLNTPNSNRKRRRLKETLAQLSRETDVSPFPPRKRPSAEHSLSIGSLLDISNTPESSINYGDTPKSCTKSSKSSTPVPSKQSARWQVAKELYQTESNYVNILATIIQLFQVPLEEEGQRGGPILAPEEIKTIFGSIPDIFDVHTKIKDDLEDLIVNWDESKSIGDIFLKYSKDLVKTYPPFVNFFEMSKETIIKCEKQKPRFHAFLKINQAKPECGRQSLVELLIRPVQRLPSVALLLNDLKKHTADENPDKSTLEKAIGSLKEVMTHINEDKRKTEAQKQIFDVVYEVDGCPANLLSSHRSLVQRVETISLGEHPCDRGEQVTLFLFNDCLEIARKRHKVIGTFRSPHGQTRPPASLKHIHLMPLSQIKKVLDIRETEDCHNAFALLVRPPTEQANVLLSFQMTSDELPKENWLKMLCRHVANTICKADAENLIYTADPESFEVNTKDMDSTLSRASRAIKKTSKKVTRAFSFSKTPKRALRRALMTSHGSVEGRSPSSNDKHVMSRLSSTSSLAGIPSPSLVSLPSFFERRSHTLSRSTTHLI
UniProt Q9HB71, whole entry: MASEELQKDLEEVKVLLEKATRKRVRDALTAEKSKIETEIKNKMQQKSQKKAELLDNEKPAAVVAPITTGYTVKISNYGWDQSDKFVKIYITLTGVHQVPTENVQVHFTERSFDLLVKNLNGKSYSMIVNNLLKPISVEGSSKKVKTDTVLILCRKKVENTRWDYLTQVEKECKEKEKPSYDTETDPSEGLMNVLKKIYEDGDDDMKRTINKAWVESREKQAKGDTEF
UniProt Q9H2H8: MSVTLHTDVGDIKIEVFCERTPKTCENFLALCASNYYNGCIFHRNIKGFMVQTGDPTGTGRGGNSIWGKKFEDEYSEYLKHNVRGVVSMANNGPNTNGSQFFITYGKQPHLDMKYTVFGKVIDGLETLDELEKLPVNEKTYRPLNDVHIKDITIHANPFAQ
UniProt Q9H081: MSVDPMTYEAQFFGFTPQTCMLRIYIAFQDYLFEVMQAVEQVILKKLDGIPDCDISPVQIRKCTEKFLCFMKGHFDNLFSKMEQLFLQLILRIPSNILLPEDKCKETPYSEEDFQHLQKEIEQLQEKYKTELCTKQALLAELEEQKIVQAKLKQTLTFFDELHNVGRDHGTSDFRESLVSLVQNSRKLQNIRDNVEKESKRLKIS
UniProt Q9H0A8, whole entry: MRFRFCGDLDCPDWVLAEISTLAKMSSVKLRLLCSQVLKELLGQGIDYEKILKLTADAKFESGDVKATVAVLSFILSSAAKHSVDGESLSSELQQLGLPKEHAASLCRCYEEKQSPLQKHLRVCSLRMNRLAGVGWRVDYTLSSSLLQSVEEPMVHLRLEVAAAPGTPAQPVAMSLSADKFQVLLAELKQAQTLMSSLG

Target	NP40-soluble protein abundance (concentration: 1mM)	NP40-soluble protein abundance (concentration: 2mM)	NP40-soluble protein abundance (concentration: 4mM)	NP40-soluble protein abundance (concentration: 6mM)	NP40-soluble protein abundance (concentration: 8mM)	NP40-soluble protein abundance (concentration: 10mM)
UniProt Q9H773	0.83 ± 0.0096	0.89 ± 0.042	0.924 ± 0.12	0.822 ± 0.0085	0.813 ± 0.13	0.73 ± 0.11
POLR3F (UniProt Q9H1D9)	1.06 ± 0.053	1.03 ± 0.026	1.01 ± 0.042	0.999 ± 0.056	1.06 ± 0.04	1.02 ± 0.015
DEF6 (UniProt Q9H4E7)	0.961 ± 0.025	0.95 ± 0.011	0.95 ± 0.028	0.943 ± 0.013	0.938 ± 0.036	0.922 ± 0.026
RRAGC (UniProt Q9HB90)	1.09 ± 0.13	1.06 ± 0.15	1.05 ± 0.077	1.04 ± 0.094	1.02 ± 0.092	1.05 ± 0.055
UniProt Q9C0B5 and related entries	0.835 ± 0.04	0.887 ± 0.023	0.851 ± 0.041	0.848 ± 0.036	0.817 ± 0.032	0.823 ± 0.035
GPN2 (UniProt Q9H9Y4)	1.09 ± 0.051	1.15 ± 0.12	1.08 ± 0.1	1.07 ± 0.1	1.06 ± 0.067	1.05 ± 0.13
SHARPIN (UniProt Q9H0F6)	0.987 ± 0.017	0.977 ± 0.047	0.943 ± 0.053	0.992 ± 0.07	0.972 ± 0.04	0.925 ± 0.036
UniProt Q9H0W8	0.989 ± 0.13	1.02 ± 0.06	1.01 ± 0.05	1 ± 0.085	0.945 ± 0.059	0.95 ± 0.036
GPN1 (UniProt Q9HCN4)	0.984 ± 0.053	1.01 ± 0.053	0.989 ± 0.072	0.969 ± 0.069	0.972 ± 0.047	1.01 ± 0.044
FTO (UniProt Q9C0B1)	1.02 ± 0.054	0.997 ± 0.06	0.975 ± 0.046	0.989 ± 0.074	0.987 ± 0.053	0.972 ± 0.052
PELI2 (UniProt Q9HAT8)	0.98 ± 0.065	0.988 ± 0.056	1.01 ± 0.044	0.971 ± 0.043	0.988 ± 0.078	0.994 ± 0.045
RHOF (UniProt Q9HBH0)	1.07 ± 0.19	1.05 ± 0.15	1.05 ± 0.17	0.994 ± 0.19	1.03 ± 0.068	1.09 ± 0.12
UniProt Q9HBL7	1.03 ± 0.055	1.01 ± 0.049	1.03 ± 0.083	0.97 ± 0.048	1.02 ± 0.065	0.942 ± 0.043
UniProt Q9NP87	1.02 ± 0.08	1.06 ± 0.046	1.06 ± 0.018	1.07 ± 0.065	0.954 ± 0.11	0.985 ± 0.11
UniProt Q9H9V9 and related entries	1.14 ± 0.17	1.03 ± 0.13	1.18 ± 0.11	1.04 ± 0.19	1.12 ± 0.25	1.03 ± 0.2
UniProt Q9HA65 and related entries	0.978 ± 0.015	0.9913 ± 0.0066	0.9245 ± 0.0085	0.979 ± 0.015	0.913 ± 0.043	0.898 ± 0.077
ZWILCH (UniProt Q9H900)	1.06 ± 0.16	1.07 ± 0.082	1.02 ± 0.15	0.994 ± 0.11	1.09 ± 0.1	1.04 ± 0.074
UniProt Q9GZM8 and related entries	0.863 ± 0.2	0.871 ± 0.11	0.886 ± 0.045	0.919 ± 0.17	0.9219 ± 0.005	0.849 ± 0.13
PDF (UniProt Q9HBH1)	0.968 ± 0.032	0.973 ± 0.02	0.961 ± 0.032	0.979 ± 0.049	0.942 ± 0.083	0.932 ± 0.059
UniProt Q9H936 and related entries	0.95 ± 0.065	0.97 ± 0.031	0.958 ± 0.06	0.906 ± 0.042	0.942 ± 0.064	1.01 ± 0.085

Target	NP40-soluble protein abundance (concentration: 1mM)	NP40-soluble protein abundance (concentration: 2mM)	NP40-soluble protein abundance (concentration: 4mM)	NP40-soluble protein abundance (concentration: 6mM)	NP40-soluble protein abundance (concentration: 8mM)	NP40-soluble protein abundance (concentration: 10mM)
UniProt Q9H3H5 and related entries	1.08 ± 0.22	1.06 ± 0.13	0.987 ± 0.12	0.873 ± 0.12	1.04 ± 0.1	1.02 ± 0.072
UniProt Q9H8M2 and related entries	1.16 ± 0.24	1.12 ± 0.32	1.27 ± 0.36	1.25 ± 0.33	1.28 ± 0.41	1.39 ± 0.45
MOV10 (UniProt Q9HCE1)	1.12 ± 0.092	1.05 ± 0.018	1.08 ± 0.02	1.04 ± 0.018	1.18 ± 0.05	1.18 ± 0.087
CCDC86 (UniProt Q9H6F5)	1.121 ± 0.011	1.17 ± 0.047	1.25 ± 0.054	1.32 ± 0.022	1.23 ± 0.063	1.35 ± 0.073
UniProt Q9HCC0-2	1.03 ± 0.02	0.9984 ± 0.0071	1.01 ± 0.016	0.994 ± 0.024	0.999 ± 0.048	0.995 ± 0.039
UniProt Q9H8K7	1.06 ± 0.056	1.01 ± 0.032	1.026 ± 0.0098	1.03 ± 0.021	0.999 ± 0.058	1.04 ± 0.11
EML4 (UniProt Q9HC35)	0.939 ± 0.026	0.954 ± 0.028	0.942 ± 0.015	0.952 ± 0.016	0.973 ± 0.016	0.972 ± 0.014
UniProt Q9H0X9 and related entries	1.05 ± 0.068	1.06 ± 0.018	1.01 ± 0.1	1.06 ± 0.04	1.02 ± 0.073	0.996 ± 0.013
WDR55 (UniProt Q9H6Y2)	1.12 ± 0.1	1.13 ± 0.088	1.14 ± 0.064	1.14 ± 0.037	1.04 ± 0.066	1.12 ± 0.042
SCPEP1 (UniProt Q9HB40)	0.9871 ± 0.0082	0.945 ± 0.022	0.9333 ± 0.0072	0.937 ± 0.024	0.924 ± 0.012	0.878 ± 0.057
BLZF1 (UniProt Q9H2G9)	0.962 ± 0.1	1 ± 0.11	1.1 ± 0.077	1.13 ± 0.078	1.07 ± 0.1	1.01 ± 0.067
PCIF1 (UniProt Q9H4Z3)	1.01 ± 0.058	0.978 ± 0.021	0.978 ± 0.018	0.966 ± 0.018	0.963 ± 0.017	0.955 ± 0.053
ANKZF1 (UniProt Q9H8Y5)	1.04 ± 0.036	1.04 ± 0.015	1.06 ± 0.027	1.03 ± 0.036	1.01 ± 0.033	1.02 ± 0.018
UniProt Q9H0W9 and related entries	0.99 ± 0.043	0.979 ± 0.019	0.981 ± 0.035	0.995 ± 0.044	0.971 ± 0.033	0.965 ± 0.05
MED20 (UniProt Q9H944)	1.01 ± 0.022	0.994 ± 0.018	0.985 ± 0.012	0.954 ± 0.027	0.969 ± 0.028	0.981 ± 0.025
LSG1 (UniProt Q9H089)	1.07 ± 0.03	1.08 ± 0.021	1.072 ± 0.0071	1.08 ± 0.03	1.09 ± 0.036	1.11 ± 0.055
UniProt Q9H8V3 and related entries	1.15 ± 0.068	1.11 ± 0.036	1.23 ± 0.081	1.19 ± 0.035	1.16 ± 0.061	1.17 ± 0.03
GORASP2 (UniProt Q9H8Y8)	0.909 ± 0.053	0.906 ± 0.011	0.911 ± 0.016	0.919 ± 0.017	0.885 ± 0.0096	0.877 ± 0.022
ACTR8 (UniProt Q9H981)	1.12 ± 0.038	1.15 ± 0.07	1.19 ± 0.068	1.19 ± 0.06	1.23 ± 0.096	1.25 ± 0.11
UNC93B1 (UniProt Q9H1C4)	1.1 ± 0.16	0.977 ± 0.032	1.16 ± 0.18	1.05 ± 0.11	1.12 ± 0.15	0.972 ± 0.036

Target	NP40-soluble protein abundance (concentration: 1mM)	NP40-soluble protein abundance (concentration: 2mM)	NP40-soluble protein abundance (concentration: 4mM)	NP40-soluble protein abundance (concentration: 6mM)	NP40-soluble protein abundance (concentration: 8mM)	NP40-soluble protein abundance (concentration: 10mM)
MRPL44 (UniProt Q9H9J2)	1.04 ± 0.061	0.943 ± 0.076	0.892 ± 0.027	0.896 ± 0.18	0.933 ± 0.16	0.898 ± 0.11
CHD8 (UniProt Q9HCK8)	0.995 ± 0.0062	0.989 ± 0.029	0.978 ± 0.013	0.979 ± 0.027	0.9871 ± 0.0037	0.989 ± 0.033
UniProt Q9HAU0 and related entries	1.04 ± 0.11	1.03 ± 0.11	1.09 ± 0.15	1.14 ± 0.14	1.1 ± 0.11	1.13 ± 0.094
UniProt Q9HA38 and related entries	1.17 ± 0.049	1.25 ± 0.088	1.4 ± 0.019	1.42 ± 0.066	1.41 ± 0.047	1.45 ± 0.049
DSN1 (UniProt Q9H410)	0.969 ± 0.028	0.971 ± 0.03	0.94 ± 0.02	0.967 ± 0.03	0.9344 ± 0.0049	0.944 ± 0.01
UniProt Q9H2G2-2	0.949 ± 0.038	0.953 ± 0.025	0.92 ± 0.014	0.965 ± 0.014	0.914 ± 0.027	0.926 ± 0.015
CACYBP (UniProt Q9HB71)	0.951 ± 0.027	0.9495 ± 0.0029	0.899 ± 0.02	0.979 ± 0.025	0.912 ± 0.035	0.91 ± 0.021
RAB33B (UniProt Q9H082)	1 ± 0.038	1.01 ± 0.028	0.959 ± 0.022	0.937 ± 0.069	0.96 ± 0.041	0.956 ± 0.037
WDR54 (UniProt Q9H977)	1.03 ± 0.12	1.04 ± 0.14	1.06 ± 0.17	0.977 ± 0.12	0.995 ± 0.12	1.03 ± 0.16
PUS7L (UniProt Q9H0K6)	1.02 ± 0.12	1.02 ± 0.055	1.1 ± 0.098	1.07 ± 0.086	1.11 ± 0.13	1.07 ± 0.12
UniProt Q9H2H8 and related entries	0.995 ± 0.015	0.974 ± 0.057	0.975 ± 0.054	1.01 ± 0.076	0.986 ± 0.08	0.986 ± 0.035
UniProt Q9H7D7-2	1.04 ± 0.027	0.975 ± 0.045	0.958 ± 0.065	0.937 ± 0.13	0.99 ± 0.12	0.967 ± 0.092
SPC25 (UniProt Q9HBM1)	0.967 ± 0.032	0.98 ± 0.011	0.967 ± 0.019	0.9684 ± 0.0042	0.942 ± 0.013	0.91 ± 0.059
UniProt Q9H7C9	0.946 ± 0.065	0.954 ± 0.022	0.952 ± 0.025	0.961 ± 0.045	0.94 ± 0.015	0.881 ± 0.067
UniProt Q9H3H3-2|Q9H3H3-3	0.975 ± 0.099	0.957 ± 0.095	0.999 ± 0.076	0.884 ± 0.12	0.961 ± 0.11	0.965 ± 0.096
UniProt Q9HAF1 and related entries	1.17 ± 0.079	1.22 ± 0.11	1.27 ± 0.059	1.37 ± 0.14	1.4 ± 0.099	1.37 ± 0.23
MIS12 (UniProt Q9H081)	0.961 ± 0.17	0.897 ± 0.12	0.975 ± 0.04	0.944 ± 0.17	0.948 ± 0.13	0.845 ± 0.18
COMMD4 (UniProt Q9H0A8)	0.96 ± 0.061	0.967 ± 0.057	0.911 ± 0.0095	0.878 ± 0.067	0.89 ± 0.039	0.95 ± 0.014
C12orf65 (UniProt Q9H3J6)	0.929 ± 0.036	0.897 ± 0.059	1.19 ± 0.054	1.284 ± 0.0085	1.29 ± 0.15	1.24 ± 0.15
UniProt Q9GZN8 and related entries	1.07 ± 0.065	1.07 ± 0.038	1.08 ± 0.027	1.02 ± 0.028	1.05 ± 0.015	1.02 ± 0.053

From the supplement of paper PMC6411743
